# From PubChem BioAssay AID2517 (National Center for Advancing Translational Sciences (NCATS), 2010)
# Sequences of proteins named here, by UniProt entry; tags and fusion partners are left off.
# UniProt P27695, whole entry, looked up: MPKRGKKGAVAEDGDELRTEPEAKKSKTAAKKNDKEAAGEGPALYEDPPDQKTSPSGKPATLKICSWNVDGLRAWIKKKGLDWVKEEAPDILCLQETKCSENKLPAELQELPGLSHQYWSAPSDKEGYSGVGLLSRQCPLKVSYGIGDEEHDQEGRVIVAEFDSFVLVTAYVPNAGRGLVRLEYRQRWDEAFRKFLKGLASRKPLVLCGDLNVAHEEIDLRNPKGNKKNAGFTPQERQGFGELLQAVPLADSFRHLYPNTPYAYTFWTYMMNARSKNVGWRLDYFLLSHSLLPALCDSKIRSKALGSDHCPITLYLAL
# Screen size: about 350,000 compounds; about 1,200 (0.34%) were called active. The shares of active, inactive and inconclusive entries below differ from those in the screen. Calls follow the shape of the dose curve; as a rule, active = well fitted inhibition curve with a large enough effect; inconclusive = small, poorly fitted or top-dose-only effect; inactive = no such curve, though single readings can be large or run the other way. A potency beside an inconclusive call is a rough fit, not a confirmed value.
# Molecular target: DNA repair nuclease/redox regulator APEX1 (Homo sapiens) (UniProt P27695)
# Experiment: qHTS Assay for Inhibitors of the Human Apurinic/apyrimidinic Endonuclease 1 (APE1); also: nearly all actives have a fitted effect of over 55% in size;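 as to activity change, negative = inhibition: plate controls were vehicle for no effect and reference inhibitor for full effect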
# Conditions: recombinant APE1, TAMRA/BHQ-2 abasic DNA cleavage fluorescence; activity change, negative = inhibition: at 65.8 µM (top of the series)
# Procedure, shortened: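 Compound pre-exposure to 0.75 nM APE1, 15 min at ambient temperature. Reaction initiated with 50 nM TAMRA/BHQ-2 THF substrate, read immediately in kinetic mode, 525 nm excitation, 598 nm emission.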
# Potency is read from the fitted curve at half-maximal effect.
Compound,Potency,"activity change, negative = inhibition"
CCc1ccc(NC(=O)COC(=O)CN2C(=O)COc3ccccc32)cc1,"inconclusive: 4.47 µM [inhibitor, single point]",
C[C@H]1CN(S(=O)(=O)c2c(F)cccc2F)CCN1S(=O)(=O)c1ccc2c(c1)OCCO2,,inactive: 37.3%
CS(=O)(=O)C1=NSC2=NC(=O)/C(=C\c3ccc(OC(=O)c4ccco4)cc3)C(=N)N21,,inactive: -4.38%
Cc1cccc(NC(=O)CN2C(=O)N/C(=C\c3cccn3-c3cccc(C(=O)O)c3)C2=O)c1,"inconclusive: 22.4 µM [inhibitor, partial curve]",
H-EHIPA-OH,"inconclusive: 6.31 µM [inhibitor, single point]",
COC(=O)c1ccc(C(=O)OC)c(NC(=O)CSCc2ccc(Br)cc2)c1,"inconclusive: 0.112 µM [inhibitor, full curve, poor fit]",
Cc1cccc(C)c1-n1c(C)cc(/C=C2\C(=O)NN(c3ccccc3)C2=O)c1C,"inconclusive: 44.7 µM [inhibitor, single point]",
Cc1ccc(-c2nc(N)s[n+]2-c2ccccc2)cc1,,inactive: 2.06%
Cc1ccc2[nH]c3c(N4CCN(Cc5ccc6c(c5)OCO6)CC4)ncnc3c2c1,"inconclusive: 3.55 µM [inhibitor, partial curve, poor fit]",
COc1ccc(N2CCN(C(=O)Cc3ncc(C(F)(F)F)cc3Cl)CC2)cc1,"inconclusive: 28.2 µM [inhibitor, single point]",
O=C(OCc1cc(=O)n2c(n1)sc1ccccc12)c1ccc(O)cc1O,"inconclusive: 20 µM [inhibitor, partial curve]",
CCOc1ccc(N(CC(=O)NN=C2CCCC2)S(C)(=O)=O)cc1,"inconclusive: 44.7 µM [inhibitor, single point]",
Cc1ccc(C(=O)NCc2ccc(Cl)c(Cl)c2)o1,"inconclusive: 0.158 µM [inhibitor, full curve, poor fit]",
Cc1cc(C(=O)N/N=C/c2cc(Cl)cc([N+](=O)[O-])c2O)n[nH]1,,inactive: -2.51%
Cc1ccc(S(=O)(=O)N2CCC(=O)N(C(COCc3ccc(Cl)c(Cl)c3)Cc3ccccc3)CC2)cc1 (stereo not drawn),"inconclusive: 5.01 µM [inhibitor, single point]",
N#C/C(=C\c1ccc(N2CCOCC2)o1)c1nc2ccccc2[nH]1,"inconclusive: 31.6 µM [inhibitor, single point]",
CCOP(=O)(c1ccc(N(C)C)cc1)C(O)c1cccnc1 (stereo not drawn),"inconclusive: 7.94 µM [inhibitor, single point]",
O=C(N/N=C/c1cc([N+](=O)[O-])ccc1O)C1CCCCC1,"inconclusive: 20 µM [inhibitor, single point]",
C=CCc1cccc(/C=C/c2cc(=O)c3ccccc3[nH]2)c1O,,inactive: 2.2%
C[C@@H](/C=C\c1cccc(Oc2ccc(F)cc2)c1)N(O)C(N)=O,"inconclusive: 44.7 µM [inhibitor, single point]",
Cc1ccc(NS(=O)(=O)c2ccc(NC(=O)CN(c3cc([N+](=O)[O-])ccc3C)S(C)(=O)=O)cc2)c(C)c1,"inconclusive: 8.91 µM [inhibitor, single point]",
CCOC(=O)N1CCN(C(=O)CN(Cc2ccccc2)S(C)(=O)=O)CC1,"inconclusive: 12.6 µM [inhibitor, partial curve, poor fit]",
CCC(=O)N1CCCc2cc(S(=O)(=O)NCc3cccs3)ccc21,,inactive: -1.13%

Compound,Potency,"activity change, negative = inhibition"
CCCCCCCN,,inactive: -1.27%
O=C1CC(N2CCC(O)(c3ccc(Cl)cc3)CC2)C(=O)N1Cc1ccc(N2CCCC2=O)cc1 (stereo not drawn),"inconclusive: 31.6 µM [inhibitor, single point]",
Cc1nc(N)sc1-c1csc(NCc2ccccc2)n1,,inactive: -5.63%
Clc1ccccc1CSc1nnc(-c2ccccn2)n1Cc1ccco1,"inconclusive: 1 µM [inhibitor, full curve, poor fit]",
CC(=O)Nc1ccc(S(=O)(=O)N(C)c2ccc(OCCOc3ccccc3F)cc2)cc1,"inconclusive: 21.2 µM [inhibitor, single point]",
CCCNC(C)C(=O)Nc1ccccc1C (stereo not drawn),"inconclusive: 44.7 µM [inhibitor, single point]",
CCCCN(CCCC)C1=Nc2ccccc2N/C1=C(/C#N)C(=O)OCC,"inconclusive: 44.7 µM [inhibitor, single point]",
CC=O,,inactive: -2.31%
Cc1ccc(NC(=O)CCNC(=O)c2ccc(Cl)cc2)cc1F,"inconclusive: 178 µM [inhibitor, partial curve]",
Cc1c(-c2ccco2)[n+](=O)c2c(n1[O-])CCC2,"inconclusive: 50.1 µM [inhibitor, single point]",
CCOc1ccccc1N(CC(=O)NCC1CCCO1)C(=O)CCC(=O)Nc1ccccn1 (stereo not drawn),"inconclusive: 20 µM [inhibitor, partial curve]",
Cc1cc(C)c2nc3sc(C(=O)N4CCOCC4)c(N)c3cc2c1,"inconclusive: 44.7 µM [inhibitor, single point]",
N#C/C(=C\c1c(N2CCCCC2)nc2ccccn2c1=O)C(=O)NC1CCS(=O)(=O)C1 (stereo not drawn),"inconclusive: 0.0316 µM [inhibitor, full curve, poor fit]",
COc1ccc(C(=O)NNC(=O)C(NC(=O)c2ccccc2NC(=O)c2ccco2)C(C)C)cc1 (stereo not drawn),"inconclusive: 14.1 µM [inhibitor, partial curve]",
CCC(N)(C(=O)O)c1ccc(C(=O)O)cc1 (stereo not drawn),"inconclusive: 39.8 µM [inhibitor, partial curve]",
Cc1sc2nc(CC(=O)NN)[nH]c(=O)c2c1C,"inconclusive: 22.4 µM [inhibitor, single point]",
Cc1cc(C)n(-c2nnc3c4ccccc4n(C)c3n2)n1,,inactive: -9.71%
COC(=O)c1sccc1NC(=O)Cn1nnc(-c2ccccc2C)n1,"inconclusive: 28.2 µM [inhibitor, single point]",
Cc1ccc(C(=O)O/N=C(\N)c2ccc(Br)cc2)cc1,,inactive: 20.5%
COc1cc2c(C#N)c(N3CCCC3)nc(N)c2c(N)n1,,inactive: 9.32%
CCc1ccccc1NC(=O)CCS(=O)(=O)c1ccc(OC)cc1,,inactive: 28.2%
CCCCNC(=O)C(=O)NCCCn1ccnc1,"inconclusive: 4.47 µM [inhibitor, partial curve]",
O=C(O)C1CC=CC2CCN(C3CCCCC3)C(=O)C21 (stereo not drawn),"inconclusive: 44.7 µM [inhibitor, single point]",

# Pulled one by one from the list above:
Compound,Potency,"activity change, negative = inhibition"
O=C(N/N=C/c1cc([N+](=O)[O-])ccc1O)C1CCCCC1,"inconclusive: 20 µM [inhibitor, single point]",
O=C1CC(N2CCC(O)(c3ccc(Cl)cc3)CC2)C(=O)N1Cc1ccc(N2CCCC2=O)cc1 (stereo not drawn),"inconclusive: 31.6 µM [inhibitor, single point]",

# The listing continues:

Compound,Potency,"activity change, negative = inhibition"
COc1ccccc1/C=N/NC(=O)CC(=O)NC1CCCCC1,"inconclusive: 2 µM [inhibitor, partial curve, poor fit]",
Cc1cc(C)nc(Nc2ncc(O)n2-c2ccccc2)n1,"inconclusive: 0.004 µM [inhibitor, full curve, poor fit]",
CC1(C)OC(=O)C(=Cc2ccc(-c3ccc(Cl)c(C(=O)O)c3)o2)C(=O)O1,active: 22.4 µM,
COc1cc(N/N=C/c2ccccc2O)ncn1,,inactive: -8.81%
C=CCOC(=O)C1=C[C@@H](c2ccc(Br)cc2)C[C@@H](OCc2ccc(CO)cc2)O1,"inconclusive: 20 µM [inhibitor, partial curve]",
O=C1/C(=C/c2cccc(Br)c2)SC(=S)N1/N=C/c1cc([N+](=O)[O-])ccc1O,"inconclusive: 3.55 µM [inhibitor, single point]",
CN(C)c1ccc(/C=C2\NC(=S)N(Cc3ccccc3)C2=O)cc1,"inconclusive: 31.6 µM [inhibitor, partial curve, poor fit]",
CCOc1ccc(OCc2ccc(C(=O)N3CCc4ccccc4C3)o2)cc1,"inconclusive: 44.7 µM [inhibitor, single point]",
C=CCn1c(SCC(=O)NCC2CCCO2)nc2scc(-c3ccco3)c2c1=O (stereo not drawn),"inconclusive: 39.8 µM [inhibitor, single point]",
CCOC(=O)OCC1OC(C#Cc2ccc(F)cc2F)C=CC1OC(=O)OCC (stereo not drawn),"inconclusive: 0.02 µM [inhibitor, full curve]",
Cc1nnc(NC(=O)CSc2nnc(-c3ccco3)n2C(C)C)s1,,inactive: 8.94%
COC(=O)c1ccccc1NC(=O)NC1CCCC1,"inconclusive: 25.1 µM [inhibitor, partial curve, poor fit]",
O=C(c1cc2nc(-c3ccccc3)cc(-c3ccccc3)n2n1)N1CCCC1,"inconclusive: 44.7 µM [inhibitor, single point]",
CCN(CC)CCCNC(=O)CSc1nc(-c2ccc(F)cc2)cc(C(F)(F)F)n1,"inconclusive: 35.5 µM [inhibitor, single point]",
COCCOC(=O)C1=C(C)N(c2ccccc2)C(=O)NC1c1cccc([N+](=O)[O-])c1 (stereo not drawn),"inconclusive: 39.8 µM [inhibitor, single point]",
COc1ccccc1Nc1nc(N)nc(CN2CCC(C)CC2)n1,"inconclusive: 1.41 µM [inhibitor, full curve, poor fit]",
Cc1ccc(C)c(S(=O)(=O)Nc2cc(SCC(=O)O)c(O)c3ccccc23)c1,,inactive: -11.6%
COc1ccc(/C=N/NC(=O)CCn2c3ccccc3c3ccccc32)cc1O,"inconclusive: 44.7 µM [inhibitor, single point]",
COC(=O)NC(c1cccc(C)c1)[C@@]1(C(=O)OC)CCCC1=O (stereo partly drawn),"inconclusive: 3.16 µM [inhibitor, single point]",
COCCCN1Cc2cccc(C(=O)O)c2C1=O,"inconclusive: 25.1 µM [inhibitor, partial curve]",
O=C(CSc1nnc(NC(=O)c2ccccc2Cl)s1)Nc1ccc2c(c1)oc1ccccc12,"inconclusive: 17.8 µM [inhibitor, single point]",
N#C/C(=C\c1ccco1)c1nc2ccccc2s1,,inactive: -10%

# Reformatted: entries from further up.
Compound	Potency	activity change, negative = inhibition
Cc1cc(C)n(-c2nnc3c4ccccc4n(C)c3n2)n1		inactive: -9.71%
COC(=O)c1sccc1NC(=O)Cn1nnc(-c2ccccc2C)n1	inconclusive: 28.2 µM [inhibitor, single point]	
Cc1ccc(C(=O)O/N=C(\N)c2ccc(Br)cc2)cc1		inactive: 20.5%
COc1cc2c(C#N)c(N3CCCC3)nc(N)c2c(N)n1		inactive: 9.32%
CCc1ccccc1NC(=O)CCS(=O)(=O)c1ccc(OC)cc1		inactive: 28.2%
CCCCNC(=O)C(=O)NCCCn1ccnc1	inconclusive: 4.47 µM [inhibitor, partial curve]	
O=C(O)C1CC=CC2CCN(C3CCCCC3)C(=O)C21 (stereo not drawn)	inconclusive: 44.7 µM [inhibitor, single point]	
COc1ccccc1/C=N/NC(=O)CC(=O)NC1CCCCC1	inconclusive: 2 µM [inhibitor, partial curve, poor fit]	
Cc1cc(C)nc(Nc2ncc(O)n2-c2ccccc2)n1	inconclusive: 0.004 µM [inhibitor, full curve, poor fit]	
CC1(C)OC(=O)C(=Cc2ccc(-c3ccc(Cl)c(C(=O)O)c3)o2)C(=O)O1	active: 22.4 µM	
COc1cc(N/N=C/c2ccccc2O)ncn1		inactive: -8.81%
C=CCOC(=O)C1=C[C@@H](c2ccc(Br)cc2)C[C@@H](OCc2ccc(CO)cc2)O1	inconclusive: 20 µM [inhibitor, partial curve]	
